Results are given in words; binding and its absence hold for the method and conditions named. In cells and extracts the contact can be indirect. Some binding calls cover weakened binding; strength is not graded here. Tags and fused reporters may be left off the sequences shown.
Key:
[1] = target: T1, Myc-tagged E75 expressed in Drosophila S2 cells (Drosophila melanogaster) (UniProt P17671); test: co-IP
T1 sequence: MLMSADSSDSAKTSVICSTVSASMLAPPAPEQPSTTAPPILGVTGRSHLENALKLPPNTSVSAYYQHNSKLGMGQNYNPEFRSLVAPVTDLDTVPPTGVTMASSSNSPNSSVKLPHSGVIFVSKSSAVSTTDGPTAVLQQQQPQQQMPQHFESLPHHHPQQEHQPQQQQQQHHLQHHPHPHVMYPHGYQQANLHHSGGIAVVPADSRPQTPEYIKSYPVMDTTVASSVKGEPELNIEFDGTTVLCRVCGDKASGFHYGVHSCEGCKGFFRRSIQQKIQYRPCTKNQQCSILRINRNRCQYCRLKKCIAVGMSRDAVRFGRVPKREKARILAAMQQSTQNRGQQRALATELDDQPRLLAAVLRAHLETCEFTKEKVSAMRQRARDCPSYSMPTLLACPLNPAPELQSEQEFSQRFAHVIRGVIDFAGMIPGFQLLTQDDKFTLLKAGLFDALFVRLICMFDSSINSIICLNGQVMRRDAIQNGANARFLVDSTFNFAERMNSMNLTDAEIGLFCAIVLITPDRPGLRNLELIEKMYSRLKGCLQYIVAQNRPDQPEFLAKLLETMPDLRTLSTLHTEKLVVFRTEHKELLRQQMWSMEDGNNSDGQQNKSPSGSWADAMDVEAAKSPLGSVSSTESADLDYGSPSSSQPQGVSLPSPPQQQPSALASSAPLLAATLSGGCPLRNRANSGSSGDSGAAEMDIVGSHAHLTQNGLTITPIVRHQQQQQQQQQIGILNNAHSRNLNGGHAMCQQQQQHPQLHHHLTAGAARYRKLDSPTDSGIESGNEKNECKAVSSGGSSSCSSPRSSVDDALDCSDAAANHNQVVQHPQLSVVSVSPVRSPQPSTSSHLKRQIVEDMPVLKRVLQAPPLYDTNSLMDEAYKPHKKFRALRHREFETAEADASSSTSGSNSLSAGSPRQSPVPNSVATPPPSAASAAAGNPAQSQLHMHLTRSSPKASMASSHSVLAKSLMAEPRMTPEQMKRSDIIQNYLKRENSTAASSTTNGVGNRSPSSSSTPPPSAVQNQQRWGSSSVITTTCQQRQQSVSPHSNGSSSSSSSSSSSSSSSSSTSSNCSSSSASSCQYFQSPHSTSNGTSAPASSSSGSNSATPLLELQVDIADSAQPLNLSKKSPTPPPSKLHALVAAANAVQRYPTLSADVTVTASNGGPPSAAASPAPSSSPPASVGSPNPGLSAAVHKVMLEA

Amino acid sequences for entries named in this document (tags omitted).
UniProt P28159: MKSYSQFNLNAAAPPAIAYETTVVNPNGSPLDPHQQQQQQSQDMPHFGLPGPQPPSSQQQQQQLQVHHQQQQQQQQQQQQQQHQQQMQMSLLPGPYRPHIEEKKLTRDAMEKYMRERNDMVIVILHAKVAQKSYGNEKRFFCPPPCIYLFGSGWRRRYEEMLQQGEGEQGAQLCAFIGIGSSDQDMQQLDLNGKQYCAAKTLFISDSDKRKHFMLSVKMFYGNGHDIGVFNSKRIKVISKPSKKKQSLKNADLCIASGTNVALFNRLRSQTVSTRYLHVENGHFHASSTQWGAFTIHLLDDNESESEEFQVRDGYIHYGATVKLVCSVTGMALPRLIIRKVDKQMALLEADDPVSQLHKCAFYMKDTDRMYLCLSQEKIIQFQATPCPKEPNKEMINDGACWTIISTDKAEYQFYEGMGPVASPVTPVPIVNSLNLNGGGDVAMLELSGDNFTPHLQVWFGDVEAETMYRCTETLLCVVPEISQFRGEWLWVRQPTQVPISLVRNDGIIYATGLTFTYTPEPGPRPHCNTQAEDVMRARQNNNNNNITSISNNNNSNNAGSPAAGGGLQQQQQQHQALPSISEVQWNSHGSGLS
UniProt P30052: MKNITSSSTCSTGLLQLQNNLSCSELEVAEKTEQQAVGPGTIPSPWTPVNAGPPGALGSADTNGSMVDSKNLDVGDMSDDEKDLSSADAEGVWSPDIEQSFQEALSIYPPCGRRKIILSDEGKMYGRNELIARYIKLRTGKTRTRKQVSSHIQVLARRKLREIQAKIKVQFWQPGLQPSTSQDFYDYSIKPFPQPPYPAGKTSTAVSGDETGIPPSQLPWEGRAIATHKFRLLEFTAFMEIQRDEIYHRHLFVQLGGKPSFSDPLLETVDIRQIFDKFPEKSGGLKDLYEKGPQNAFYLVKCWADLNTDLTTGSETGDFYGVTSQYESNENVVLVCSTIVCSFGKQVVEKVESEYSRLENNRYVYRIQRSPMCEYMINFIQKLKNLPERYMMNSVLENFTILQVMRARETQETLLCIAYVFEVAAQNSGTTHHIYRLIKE
UniProt Q06330: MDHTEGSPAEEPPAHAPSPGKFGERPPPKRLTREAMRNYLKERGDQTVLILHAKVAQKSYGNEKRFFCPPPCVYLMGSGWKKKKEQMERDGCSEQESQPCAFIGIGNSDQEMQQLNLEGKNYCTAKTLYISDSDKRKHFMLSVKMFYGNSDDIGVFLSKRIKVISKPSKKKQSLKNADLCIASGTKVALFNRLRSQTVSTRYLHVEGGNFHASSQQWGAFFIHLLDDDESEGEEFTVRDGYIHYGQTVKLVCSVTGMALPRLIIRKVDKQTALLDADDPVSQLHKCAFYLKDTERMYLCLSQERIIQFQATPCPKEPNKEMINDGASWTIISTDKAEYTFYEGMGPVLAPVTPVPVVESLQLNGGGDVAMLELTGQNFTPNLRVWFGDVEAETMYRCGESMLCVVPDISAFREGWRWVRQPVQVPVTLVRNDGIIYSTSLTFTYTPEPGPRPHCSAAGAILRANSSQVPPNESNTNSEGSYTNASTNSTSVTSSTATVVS
UniProt Q9GZV5: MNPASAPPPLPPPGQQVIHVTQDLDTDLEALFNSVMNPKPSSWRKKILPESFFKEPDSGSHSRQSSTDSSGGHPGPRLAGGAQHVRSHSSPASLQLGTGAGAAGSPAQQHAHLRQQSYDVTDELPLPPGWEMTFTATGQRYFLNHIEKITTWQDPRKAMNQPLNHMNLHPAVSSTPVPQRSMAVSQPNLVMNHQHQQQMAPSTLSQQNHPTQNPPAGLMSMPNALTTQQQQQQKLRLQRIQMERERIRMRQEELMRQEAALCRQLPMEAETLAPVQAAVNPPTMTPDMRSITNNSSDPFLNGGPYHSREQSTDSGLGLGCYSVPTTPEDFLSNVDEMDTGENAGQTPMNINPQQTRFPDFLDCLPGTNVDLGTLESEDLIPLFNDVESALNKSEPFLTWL

[2] = target: T2, Flag-tagged E75 (A isoform of Eip75B), overexpressed in Drosophila tissue (Drosophila melanogaster) (UniProt P17671); test: proximity ligation
T2 sequence: T1 sequence

[3] = target: T2, Flag-tagged E75 (A isoform of Eip75B), overexpressed in Drosophila tissue (Drosophila melanogaster); test: proximity ligation; remark: listed apart in the source
[4] = target: T3, Flag-tagged E75 expressed in Drosophila S2 cells (Drosophila melanogaster) (UniProt P17671); test: co-IP
T3 sequence: T1 sequence

[5] = target: T4, HA-tagged NR1D2 stably expressed in U87 MG cells (UniProt Q14995); test: co-IP
T4 sequence: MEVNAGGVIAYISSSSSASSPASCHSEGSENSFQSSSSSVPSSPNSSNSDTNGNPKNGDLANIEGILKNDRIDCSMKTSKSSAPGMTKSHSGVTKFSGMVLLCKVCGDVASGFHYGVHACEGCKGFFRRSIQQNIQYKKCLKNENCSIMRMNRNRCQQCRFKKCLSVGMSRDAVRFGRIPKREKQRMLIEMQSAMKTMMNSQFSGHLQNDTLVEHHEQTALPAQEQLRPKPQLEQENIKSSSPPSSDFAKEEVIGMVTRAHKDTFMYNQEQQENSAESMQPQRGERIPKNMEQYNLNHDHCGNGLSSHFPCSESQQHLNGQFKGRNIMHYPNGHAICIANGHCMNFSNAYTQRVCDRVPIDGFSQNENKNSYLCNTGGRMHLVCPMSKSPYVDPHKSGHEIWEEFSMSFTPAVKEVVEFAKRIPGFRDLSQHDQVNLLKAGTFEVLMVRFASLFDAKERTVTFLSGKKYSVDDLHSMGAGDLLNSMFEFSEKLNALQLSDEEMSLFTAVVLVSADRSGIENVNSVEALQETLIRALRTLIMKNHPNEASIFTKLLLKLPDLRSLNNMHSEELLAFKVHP

[6] = target: T2, Flag-tagged E75 (A isoform of Eip75B), overexpressed in Drosophila tissue (Drosophila melanogaster); test: co-IP

Question: With “Flag-tagged Su(H) expressed in Drosophila S2 cells (from UniProt P28159 1-594)” as the molecule, how does the binding [1] read?
Answer: The binding was “binds”.

Question: How did the binding [2] turn out when “HA-tagged Scalloped (Sd) expressed in Drosophila tissue (from UniProt P30052 1-440)” was run?
Answer: The binding was “binds”.

Question: What about the binding [3] of the same molecule?
Answer: The binding was “binds”.

Question: Which binding [4] does the source give for “HA-tagged Sd expressed in Drosophila S2 cells (from UniProt P30052 1-440)” here?
Answer: Its binding is “binds”.

Question: “RBPJ, endogenous in human glioblastoma cells (from UniProt Q06330 1-500)” was tested. Which binding [5] did it give?
Answer: The binding was “binds”.

Question: For “Suppressor of Hairless [Su(H)], endogenous in Drosophila eye-antennal discs (from UniProt P28159 1-594)”, which binding [3] is on record?
Answer: Its binding is “binds”.

Question: Which binding [5] does the source give for “TAZ (Transcriptional coactivator with PDZ-binding motif), endogenous in human glioblastoma cells (from UniProt Q9GZV5 1-400)” here?
Answer: Its binding is “binds”.

B1: Myc-tagged Yorkie (Yki) expressed in Drosophila wing discs (protein, UniProt Q45VV3 1-395)
chain: MLTTMSASSNTNSLIEKEIDDEDMLSPIKSNNLVVRVNQDTDDNLQALFDSVLNPGDAKRPLQLPLRMRKLPNSFFTPPAPSHSRANSADSTYDAGSQSSINIGNKASIVQQPDGQSPIAAIPQLQIQPSPQHSRLAIHHSRARSSPASLQQNYNVRARSDAAAANNPNANPSSQQQPAGPTFPENSAQEFPSGAPASSAIDLDAMNTCMSQDIPMSMQTVHKKQRSYDVISPIQLNRQLGALPPGWEQAKTNDGQIYYLNHTTKSTQWEDPRIQYRQQQQILMAERIKQNDVLQTTKQTTTSTIANNLGPLPDGWEQAVTESGDLYFINHIDRTTSWNDPRMQSGLSVLDCPDNLVSSLQIEDNLCSNLFNDAQAIVNPPSSHKPDDLEWYKIN
Question: With B1 as the molecule, how does the binding [2] read?
Answer: The binding was “binds”.

B2: Yki ectopically expressed in Drosophila discs (yki transgene) (protein, UniProt Q45VV3 1-395)
chain: B1 chain
Question: For B2, which binding [6] is on record?
Answer: Its binding is “binds”.
